In doi:10.1101/2020.05.15.098178:
Where two headings read alike, the source gives them in different places. No constants are given. Whether binding was seen depends on the method and setting. For some assays here: Binding seen in cells or lysates may run through a third protein. Some results given as binding are weak or reduced against the parent protein; the word gives no strength. For some assays here: Where a sequence is shown, tags or fusion partners need not be part of it. Values belong to the molecule of their own block, whether it stands above or below them.

Amino acid sequences for entries named in this document (tags omitted). Residues count along the entry.
UniProt O22476, residues 24-1196: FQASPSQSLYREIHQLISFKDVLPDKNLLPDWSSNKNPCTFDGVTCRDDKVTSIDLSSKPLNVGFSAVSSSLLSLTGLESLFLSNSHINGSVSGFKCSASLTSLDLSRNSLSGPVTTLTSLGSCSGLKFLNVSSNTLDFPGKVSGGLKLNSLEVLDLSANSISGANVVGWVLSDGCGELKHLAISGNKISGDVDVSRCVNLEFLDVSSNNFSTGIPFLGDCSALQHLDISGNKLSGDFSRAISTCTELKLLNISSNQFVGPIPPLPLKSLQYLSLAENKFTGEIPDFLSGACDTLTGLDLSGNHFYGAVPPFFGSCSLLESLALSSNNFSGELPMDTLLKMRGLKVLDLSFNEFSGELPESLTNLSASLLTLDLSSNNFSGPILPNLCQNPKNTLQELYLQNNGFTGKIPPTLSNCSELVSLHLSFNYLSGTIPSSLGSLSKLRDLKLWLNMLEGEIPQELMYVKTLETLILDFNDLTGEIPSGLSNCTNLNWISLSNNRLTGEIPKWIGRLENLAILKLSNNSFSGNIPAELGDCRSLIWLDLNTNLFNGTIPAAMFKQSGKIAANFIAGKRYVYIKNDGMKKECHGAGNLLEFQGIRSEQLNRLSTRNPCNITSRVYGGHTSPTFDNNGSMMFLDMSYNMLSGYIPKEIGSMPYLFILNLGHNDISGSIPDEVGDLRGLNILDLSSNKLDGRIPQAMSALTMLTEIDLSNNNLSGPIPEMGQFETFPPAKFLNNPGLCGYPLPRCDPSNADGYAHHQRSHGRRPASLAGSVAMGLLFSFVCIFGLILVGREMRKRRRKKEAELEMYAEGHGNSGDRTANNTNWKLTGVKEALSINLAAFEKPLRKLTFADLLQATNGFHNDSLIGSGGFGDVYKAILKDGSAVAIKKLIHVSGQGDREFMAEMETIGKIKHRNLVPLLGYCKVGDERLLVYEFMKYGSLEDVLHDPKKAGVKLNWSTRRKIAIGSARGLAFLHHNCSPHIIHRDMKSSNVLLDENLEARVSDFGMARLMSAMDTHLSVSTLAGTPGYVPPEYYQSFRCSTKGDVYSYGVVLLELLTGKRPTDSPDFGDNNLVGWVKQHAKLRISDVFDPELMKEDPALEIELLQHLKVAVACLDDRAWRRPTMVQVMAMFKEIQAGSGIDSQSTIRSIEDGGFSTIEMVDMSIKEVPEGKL

Columns and labels:
[1] = target: T1, DA1-GFP (Arabidopsis thaliana) (UniProt P0C7Q8); experiment: co-IP
T1 sequence: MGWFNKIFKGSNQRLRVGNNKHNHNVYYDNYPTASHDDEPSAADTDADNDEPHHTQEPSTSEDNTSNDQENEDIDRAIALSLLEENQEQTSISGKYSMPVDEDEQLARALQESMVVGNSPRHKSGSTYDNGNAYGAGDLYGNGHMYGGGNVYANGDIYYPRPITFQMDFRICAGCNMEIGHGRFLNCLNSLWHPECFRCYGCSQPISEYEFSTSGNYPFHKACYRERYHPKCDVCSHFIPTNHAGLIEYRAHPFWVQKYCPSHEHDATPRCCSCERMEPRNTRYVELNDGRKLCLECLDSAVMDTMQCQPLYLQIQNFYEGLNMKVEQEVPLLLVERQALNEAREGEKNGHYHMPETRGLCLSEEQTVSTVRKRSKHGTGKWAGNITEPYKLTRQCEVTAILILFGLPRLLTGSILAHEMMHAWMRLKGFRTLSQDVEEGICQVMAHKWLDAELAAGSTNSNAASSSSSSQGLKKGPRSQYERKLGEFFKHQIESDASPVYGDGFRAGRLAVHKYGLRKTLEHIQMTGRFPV

[2] = target: T2, HA-DA1 (35S::HA-DA1, transgenic da1dar1 Arabidopsis) (Arabidopsis thaliana) (UniProt P0C7Q8); experiment: co-IP
T2 sequence: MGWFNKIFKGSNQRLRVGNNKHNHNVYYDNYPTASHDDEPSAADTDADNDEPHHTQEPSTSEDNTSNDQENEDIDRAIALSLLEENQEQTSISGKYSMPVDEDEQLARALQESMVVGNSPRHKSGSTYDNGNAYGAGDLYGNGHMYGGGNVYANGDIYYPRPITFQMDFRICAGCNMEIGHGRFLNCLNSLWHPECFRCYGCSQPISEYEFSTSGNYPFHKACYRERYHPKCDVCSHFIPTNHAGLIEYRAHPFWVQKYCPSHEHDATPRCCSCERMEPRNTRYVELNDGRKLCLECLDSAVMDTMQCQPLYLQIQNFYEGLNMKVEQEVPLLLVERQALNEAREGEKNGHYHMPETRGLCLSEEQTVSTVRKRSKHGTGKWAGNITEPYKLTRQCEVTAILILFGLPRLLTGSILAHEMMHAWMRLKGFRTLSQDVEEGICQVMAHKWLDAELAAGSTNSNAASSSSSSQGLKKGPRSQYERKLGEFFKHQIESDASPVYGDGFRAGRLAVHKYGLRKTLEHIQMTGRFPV

[3] = target: T3, DA1 peptidase (bait of the yeast two-hybrid screen) (Arabidopsis thaliana) (UniProt P0C7Q8); experiment: two-hybrid
T3 sequence: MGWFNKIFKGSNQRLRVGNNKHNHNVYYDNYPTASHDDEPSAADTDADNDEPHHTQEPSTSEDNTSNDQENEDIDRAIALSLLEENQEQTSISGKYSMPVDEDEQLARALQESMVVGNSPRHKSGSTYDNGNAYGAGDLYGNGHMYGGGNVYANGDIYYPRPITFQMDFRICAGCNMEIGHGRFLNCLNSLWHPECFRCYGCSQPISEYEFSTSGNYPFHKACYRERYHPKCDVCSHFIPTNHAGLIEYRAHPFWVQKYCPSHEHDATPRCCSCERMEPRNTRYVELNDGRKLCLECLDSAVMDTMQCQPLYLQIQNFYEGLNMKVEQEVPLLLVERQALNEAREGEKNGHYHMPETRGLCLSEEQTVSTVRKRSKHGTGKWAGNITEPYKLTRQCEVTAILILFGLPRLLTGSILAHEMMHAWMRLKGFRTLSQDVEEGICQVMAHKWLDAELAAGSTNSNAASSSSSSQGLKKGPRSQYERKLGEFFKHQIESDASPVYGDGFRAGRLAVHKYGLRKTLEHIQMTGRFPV

[4] = target: DA1 wt (yeast two-hybrid GAL4-AD and GAL4-BD fusions) (Arabidopsis thaliana) (UniProt P0C7Q8); experiment: two-hybrid
[5] = target: DA1-3D phospho-mimic (yeast two-hybrid GAL4-AD and GAL4-BD fusions) (Arabidopsis thaliana) (UniProt P0C7Q8); experiment: two-hybrid
[6] = target: DA1-3D phospho-mimic (HA-DA1-3D and DA1-3D-FLAG co-expressed in da1dar1 mesophyll protoplasts) (Arabidopsis thaliana) (UniProt P0C7Q8); experiment: co-IP
[7] = target: T4, DA1 wt (HA-DA1 and DA1-FLAG co-expressed in da1dar1 mesophyll protoplasts) (Arabidopsis thaliana), P0C7Q8; experiment: co-IP; conditions: remark: other sources report otherwise
T4 chain: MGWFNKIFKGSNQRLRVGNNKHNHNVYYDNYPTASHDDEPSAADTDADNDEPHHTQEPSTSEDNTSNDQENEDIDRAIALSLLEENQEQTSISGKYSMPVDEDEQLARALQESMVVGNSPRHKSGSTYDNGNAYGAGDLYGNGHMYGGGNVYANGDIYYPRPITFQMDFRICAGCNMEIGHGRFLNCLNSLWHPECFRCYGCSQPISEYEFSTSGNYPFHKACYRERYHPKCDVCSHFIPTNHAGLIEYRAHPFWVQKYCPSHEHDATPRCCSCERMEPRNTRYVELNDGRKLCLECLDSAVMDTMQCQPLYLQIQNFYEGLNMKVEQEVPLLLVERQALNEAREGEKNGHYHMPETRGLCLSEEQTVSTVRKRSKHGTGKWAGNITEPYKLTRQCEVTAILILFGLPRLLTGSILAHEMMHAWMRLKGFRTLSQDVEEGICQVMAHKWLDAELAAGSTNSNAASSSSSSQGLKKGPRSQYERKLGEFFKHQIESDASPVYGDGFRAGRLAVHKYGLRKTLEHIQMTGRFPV

[8] = target: T1, DA1-GFP (Arabidopsis thaliana); experiment: co-IP; remark: listed apart in the source

binding [1]: binds
Molecule: BRI1-3FLAG (from UniProt O22476 24-1196) (receptor)

binding [2]: binds
Molecule: BRI1-GFP (BRI1::BRI1-GFP, transgenic da1dar1 Arabidopsis) (from UniProt O22476 24-1196) (receptor)

binding [3]: binds
B1: cytoplasmic domain of the Receptor-Like Kinase (RLK) TMK4 (domain or fragment, UniProt Q9LK43 494-928)
chain: VYKFVMKRKYGRFNRTDPEKVGKILVSDAVSNGGSGNGGYANGHGANNFNALNSPSSGDNSDRFLLEGGSVTIPMEVLRQVTNNFSEDNILGRGGFGVVYAGELHDGTKTAVKRMECAAMGNKGMSEFQAEIAVLTKVRHRHLVALLGYCVNGNERLLVYEYMPQGNLGQHLFEWSELGYSPLTWKQRVSIALDVARGVEYLHSLAQQSFIHRDLKPSNILLGDDMRAKVADFGLVKNAPDGKYSVETRLAGTFGYLAPEYAATGRVTTKVDVYAFGVVLMEILTGRKALDDSLPDERSHLVTWFRRILINKENIPKALDQTLEADEETMESIYRVAELAGHCTAREPQQRPDMGHAVNVLGPLVEKWKPSCQEEEESFGIDVNMSLPQALQRWQNEGTSSSTMFHGDFSYSQTQSSIPPKASGFPNTFDSADGR

binding [4]: binds weakly
B2: DA1 wt (yeast two-hybrid GAL4-AD and GAL4-BD fusions) (enzyme, UniProt P0C7Q8 1-532)
chain: MGWFNKIFKGSNQRLRVGNNKHNHNVYYDNYPTASHDDEPSAADTDADNDEPHHTQEPSTSEDNTSNDQENEDIDRAIALSLLEENQEQTSISGKYSMPVDEDEQLARALQESMVVGNSPRHKSGSTYDNGNAYGAGDLYGNGHMYGGGNVYANGDIYYPRPITFQMDFRICAGCNMEIGHGRFLNCLNSLWHPECFRCYGCSQPISEYEFSTSGNYPFHKACYRERYHPKCDVCSHFIPTNHAGLIEYRAHPFWVQKYCPSHEHDATPRCCSCERMEPRNTRYVELNDGRKLCLECLDSAVMDTMQCQPLYLQIQNFYEGLNMKVEQEVPLLLVERQALNEAREGEKNGHYHMPETRGLCLSEEQTVSTVRKRSKHGTGKWAGNITEPYKLTRQCEVTAILILFGLPRLLTGSILAHEMMHAWMRLKGFRTLSQDVEEGICQVMAHKWLDAELAAGSTNSNAASSSSSSQGLKKGPRSQYERKLGEFFKHQIESDASPVYGDGFRAGRLAVHKYGLRKTLEHIQMTGRFPV

binding [5]: binds
B3: DA1-3D phospho-mimic (yeast two-hybrid GAL4-AD and GAL4-BD fusions) (enzyme, UniProt P0C7Q8 1-532)
chain: MGWFNKIFKGSNQRLRVGNNKHNHNVYYDNYPTASHDDEPSAADTDADNDEPHHTQEPSTSEDNTSNDQENEDIDRAIALSLLEENQEQTSISGKYSMPVDEDEQLARALQESMVVGNSPRHKSGSTYDNGNAYGAGDLYGNGHMYGGGNVYANGDIYYPRPITFQMDFRICAGCNMEIGHGRFLNCLNSLWHPECFRCYGCSQPISEYEFSTSGNYPFHKACYRERYHPKCDVCSHFIPTNHAGLIEYRAHPFWVQKYCPSHEHDATPRCCSCERMEPRNTRYVELNDGRKLCLECLDSAVMDTMQCQPLYLQIQNFYEGLNMKVEQEVPLLLVERQALNEAREGEKNGHYHMPETRGLCLSEEQDVDDVRKRSKHGTGKWAGNITEPYKLTRQCEVTAILILFGLPRLLTGSILAHEMMHAWMRLKGFRTLSQDVEEGICQVMAHKWLDAELAAGSTNSNAASSSSSSQGLKKGPRSQYERKLGEFFKHQIESDASPVYGDGFRAGRLAVHKYGLRKTLEHIQMTGRFPV

binding [6]: binds
B4: DA1-3D phospho-mimic (HA-DA1-3D and DA1-3D-FLAG co-expressed in da1dar1 mesophyll protoplasts) (enzyme, UniProt P0C7Q8 1-532)
chain: MGWFNKIFKGSNQRLRVGNNKHNHNVYYDNYPTASHDDEPSAADTDADNDEPHHTQEPSTSEDNTSNDQENEDIDRAIALSLLEENQEQTSISGKYSMPVDEDEQLARALQESMVVGNSPRHKSGSTYDNGNAYGAGDLYGNGHMYGGGNVYANGDIYYPRPITFQMDFRICAGCNMEIGHGRFLNCLNSLWHPECFRCYGCSQPISEYEFSTSGNYPFHKACYRERYHPKCDVCSHFIPTNHAGLIEYRAHPFWVQKYCPSHEHDATPRCCSCERMEPRNTRYVELNDGRKLCLECLDSAVMDTMQCQPLYLQIQNFYEGLNMKVEQEVPLLLVERQALNEAREGEKNGHYHMPETRGLCLSEEQDVDDVRKRSKHGTGKWAGNITEPYKLTRQCEVTAILILFGLPRLLTGSILAHEMMHAWMRLKGFRTLSQDVEEGICQVMAHKWLDAELAAGSTNSNAASSSSSSQGLKKGPRSQYERKLGEFFKHQIESDASPVYGDGFRAGRLAVHKYGLRKTLEHIQMTGRFPV

binding [7]: binds
B5: DA1 wt (HA-DA1 and DA1-FLAG co-expressed in da1dar1 mesophyll protoplasts), P0C7Q8 1-532 (enzyme)
chain: MGWFNKIFKGSNQRLRVGNNKHNHNVYYDNYPTASHDDEPSAADTDADNDEPHHTQEPSTSEDNTSNDQENEDIDRAIALSLLEENQEQTSISGKYSMPVDEDEQLARALQESMVVGNSPRHKSGSTYDNGNAYGAGDLYGNGHMYGGGNVYANGDIYYPRPITFQMDFRICAGCNMEIGHGRFLNCLNSLWHPECFRCYGCSQPISEYEFSTSGNYPFHKACYRERYHPKCDVCSHFIPTNHAGLIEYRAHPFWVQKYCPSHEHDATPRCCSCERMEPRNTRYVELNDGRKLCLECLDSAVMDTMQCQPLYLQIQNFYEGLNMKVEQEVPLLLVERQALNEAREGEKNGHYHMPETRGLCLSEEQTVSTVRKRSKHGTGKWAGNITEPYKLTRQCEVTAILILFGLPRLLTGSILAHEMMHAWMRLKGFRTLSQDVEEGICQVMAHKWLDAELAAGSTNSNAASSSSSSQGLKKGPRSQYERKLGEFFKHQIESDASPVYGDGFRAGRLAVHKYGLRKTLEHIQMTGRFPV

binding [8]: binds weakly
B6: BAK1-3FLAG (receptor, UniProt Q94F62 26-615)
chain: NAEGDALSALKNSLADPNKVLQSWDATLVTPCTWFHVTCNSDNSVTRVDLGNANLSGQLVMQLGQLPNLQYLELYSNNITGTIPEQLGNLTELVSLDLYLNNLSGPIPSTLGRLKKLRFLRLNNNSLSGEIPRSLTAVLTLQVLDLSNNPLTGDIPVNGSFSLFTPISFANTKLTPLPASPPPPISPTPPSPAGSNRITGAIAGGVAAGAALLFAVPAIALAWWRRKKPQDHFFDVPAEEDPEVHLGQLKRFSLRELQVASDNFSNKNILGRGGFGKVYKGRLADGTLVAVKRLKEERTQGGELQFQTEVEMISMAVHRNLLRLRGFCMTPTERLLVYPYMANGSVASCLRERPESQPPLDWPKRQRIALGSARGLAYLHDHCDPKIIHRDVKAANILLDEEFEAVVGDFGLAKLMDYKDTHVTTAVRGTIGHIAPEYLSTGKSSEKTDVFGYGVMLLELITGQRAFDLARLANDDDVMLLDWVKGLLKEKKLEALVDVDLQGNYKDEEVEQLIQVALLCTQSSPMERPKMSEVVRMLEGDGLAERWEEWQKEEMFRQDFNYPTHHPAVSGWIIGDSTSQIENEYPSGPR
